This note sets out measurements from publication PMC7532178, “Interaction of protocadherin-15 with the scaffold protein whirlin supports its anchoring of hair-bundle lateral links in cochlear hair cells” (Scientific Reports, 2020).

Test [1] concerns the target T1, PCDH15-CD3 C-terminal peptide (biotin-TTDS-…) (mouse).
T1 sequence (peptide, biotin-TTDS (trioxatridecan-succinamic acid spacer) on the N-terminus): MGPWNSLHIPMTKL
As to the kind of experiment: SPR; ProteOn XPR 36; N-terminally biotinylated peptides captured on a Neutravidin NLC sensor chip, whirlin fragments flowed as analytes at 20 μL/min for 2 min; 250 mM NaCl, 50 mM Tris pH 7.5, 0.5 mM TCEP; steady-state fit Req = (Rmax*C)/(Kd+C); mean of three experiments; Figure 4B shows the responses at 10 μM; both purified. On the technique in general: In SPR one partner is held on a chip, and binding of the other changes the refractive index at the surface.

Test [2] has as its target T2, PCDH15-CD1 C-terminal peptide (biotin-TTDS-…) (mouse).
T2 sequence (peptide, biotin-TTDS (trioxatridecan-succinamic acid spacer) on the N-terminus): GIDVQPHSQSTSL
Described as above.

The target of test [3] is T3, PCDH15-CD2 C-terminal peptide (biotin-TTDS-…) (mouse).
T3 sequence (peptide, biotin-TTDS (trioxatridecan-succinamic acid spacer) on the N-terminus): GANSEQYNTAL
The description is as above.

Test [4] has as its target T4, CDH23 C-terminal peptide (biotin-TTDS-…) (mouse).
T4 sequence (peptide, biotin-TTDS (trioxatridecan-succinamic acid spacer) on the N-terminus): VIMESPLEITEL
The description is as above.

Test [5] concerns the target T5, C-terminal residues of SANS (…).
T5 sequence (peptide): ALERPLALEDTEL
As to the kind of experiment: SPR; harmonin fragments or full-length harmonin-a1 with C-terminal peptides; Fig. S10 and data not shown; both purified.

Results are given in words; binding and its absence hold for the method and conditions named. Some entries that bind do so weakly or less than the wild type.

B1: whirlin NTR-PDZ1 H202Y mutant (domain or fragment, UniProt Q80VW5-1 2-265)
chain: GAMGSTSNAQLDGLSVSSSSTGSLGSAAAAAGGGGGAGLRLLSANVRQLHQALTALLSEPEREQFTHCLNAYHARRNVFDLVRTLRVLLDSPVKRRLLPMLRLVIPRSDQLLFDQYTAEGLYLPATTPYRQPAWAAPDGAGPGEVRLVSLRRAKAHEGLGFSIRGGSEHGVGIYVSLVEPGSLAEKEGLRVGDQILRVNDKSLARVTYAEAVKALKGSKKLVLSVYSAGRIPGGYVTNHIYTWVDPQGRSTSPPSSLPQPHGSTLRQREDD
Take B1: the binding entry in test [1], in test [2], in test [3] and in test [4] was “no binding (tested: 10 μM)” throughout.

B2: harmonin-NTD-PDZ1 (aa 1-192) (domain or fragment, UniProt Q9ES64 1-192)
chain: GAMGSTSMDRKVAREFRHKVDFLIENDAEKDYLYDVLRMYHQTMDVAVLVGDLKLVINEPNRLPLFDAIRPLIPLKHQVEYDQLTPRRSRKLKEVRLDRLHPEGLGLSVRGGLEFGCGLFISHLIKGGQADSVGLQVGDEIVRINGYSISSCTHEEVINLIRTKKTVSIKVRHIGLIPVKSSPEESLKWQYVDQFVSES
Consider B2, for which, in test [5], the binding entry is “binds”.

B3: whirlin-PDZ2 (aa residues 272-368) (domain or fragment, UniProt Q80VW5-1 272-368)
chain: GAMGSTSLLQSGDEKKVNLVLGDGRSLGLTIRGGAEYGLGIYITGVDPGSEAESSGLKVGDQILEVNGRSFLNILHDEAVKLLKSSRHLILTVKDVGRLPHART
For B3, the binding entry in test [4] is on record as “no binding (tested: > 1 mM)”.

B4: whirlin-HHD1 (aa residues 30-121) (domain or fragment, UniProt Q80VW5-1 30-121)
chain: GAMGSTSGAGLRLLSANVRQLHQALTALLSEPEREQFTHCLNAYHARRNVFDLVRTLRVLLDSPVKRRLLPMLRLVIPRSDQLLFDQYTAEGLYLPATT
Turning to B4, the binding result in test [1], in test [2], in test [3] and in test [4] was “no binding (tested: > 1 mM)” throughout.

B5: whirlin-NTR (aa residues 2-147) (domain or fragment, UniProt Q80VW5-1 2-147)
chain: GAMGSTSNAQLDGLSVSSSSTGSLGSAAAAAGGGGGAGLRLLSANVRQLHQALTALLSEPEREQFTHCLNAYHARRNVFDLVRTLRVLLDSPVKRRLLPMLRLVIPRSDQLLFDQYTAEGLYLPATTPYRQPAWAAPDGAGPGEVRLVSLRRA
Turning to B5, the binding result in test [1], in test [2], in test [3] and in test [4] was “no binding (tested: > 1 mM)” each time.
